# Data published in the supplement of paper PMC10849652.
# Sequences of proteins named here, by UniProt entry; tags and fusion partners are left off. A change or cut given only in a name is not applied to a line headed by its entry.
# UniProt Q9H7C9: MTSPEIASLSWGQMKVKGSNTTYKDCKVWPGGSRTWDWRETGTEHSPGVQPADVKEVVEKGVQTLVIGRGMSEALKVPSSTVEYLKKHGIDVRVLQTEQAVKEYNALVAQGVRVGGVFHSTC
# UniProt Q9H3P7: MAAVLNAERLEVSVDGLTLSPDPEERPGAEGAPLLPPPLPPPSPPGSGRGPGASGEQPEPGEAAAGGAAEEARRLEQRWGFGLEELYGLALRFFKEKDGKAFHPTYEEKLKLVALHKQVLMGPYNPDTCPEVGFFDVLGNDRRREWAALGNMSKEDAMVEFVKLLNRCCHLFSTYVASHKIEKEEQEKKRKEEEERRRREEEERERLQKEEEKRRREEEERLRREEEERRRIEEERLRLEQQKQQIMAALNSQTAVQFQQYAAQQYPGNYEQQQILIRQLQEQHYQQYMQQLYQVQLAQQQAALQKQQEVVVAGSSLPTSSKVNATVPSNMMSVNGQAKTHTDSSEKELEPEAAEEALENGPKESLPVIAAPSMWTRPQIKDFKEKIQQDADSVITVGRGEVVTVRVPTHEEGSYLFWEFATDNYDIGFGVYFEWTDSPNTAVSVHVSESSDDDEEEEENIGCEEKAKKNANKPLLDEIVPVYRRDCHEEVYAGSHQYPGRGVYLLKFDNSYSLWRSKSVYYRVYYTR
# UniProt Q9H845: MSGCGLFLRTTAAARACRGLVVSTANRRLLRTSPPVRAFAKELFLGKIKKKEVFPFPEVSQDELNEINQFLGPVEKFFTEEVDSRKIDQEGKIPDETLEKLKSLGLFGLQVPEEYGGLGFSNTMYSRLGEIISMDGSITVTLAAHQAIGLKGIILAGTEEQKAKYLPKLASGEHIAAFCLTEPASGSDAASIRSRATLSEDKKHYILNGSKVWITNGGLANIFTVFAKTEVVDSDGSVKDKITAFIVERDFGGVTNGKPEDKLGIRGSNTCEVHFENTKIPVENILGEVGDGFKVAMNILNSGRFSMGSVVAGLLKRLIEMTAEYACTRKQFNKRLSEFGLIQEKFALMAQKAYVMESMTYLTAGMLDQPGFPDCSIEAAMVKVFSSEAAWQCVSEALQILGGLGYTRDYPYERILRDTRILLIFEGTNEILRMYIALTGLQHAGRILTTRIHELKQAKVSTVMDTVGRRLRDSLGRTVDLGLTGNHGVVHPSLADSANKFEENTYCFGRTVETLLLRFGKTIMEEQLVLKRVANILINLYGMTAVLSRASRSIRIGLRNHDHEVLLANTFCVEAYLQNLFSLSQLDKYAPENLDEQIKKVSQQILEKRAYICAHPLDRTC
# UniProt P00813: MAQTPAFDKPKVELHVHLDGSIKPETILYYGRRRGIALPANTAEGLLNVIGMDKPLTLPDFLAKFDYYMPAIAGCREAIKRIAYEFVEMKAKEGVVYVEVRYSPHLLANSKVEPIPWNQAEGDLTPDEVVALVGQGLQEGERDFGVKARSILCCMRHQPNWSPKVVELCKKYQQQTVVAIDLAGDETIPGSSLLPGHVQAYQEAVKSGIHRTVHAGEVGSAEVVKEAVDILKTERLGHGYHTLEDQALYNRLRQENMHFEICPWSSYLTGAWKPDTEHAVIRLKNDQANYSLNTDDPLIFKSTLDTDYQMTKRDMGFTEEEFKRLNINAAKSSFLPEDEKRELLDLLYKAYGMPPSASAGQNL
# UniProt Q6UY14: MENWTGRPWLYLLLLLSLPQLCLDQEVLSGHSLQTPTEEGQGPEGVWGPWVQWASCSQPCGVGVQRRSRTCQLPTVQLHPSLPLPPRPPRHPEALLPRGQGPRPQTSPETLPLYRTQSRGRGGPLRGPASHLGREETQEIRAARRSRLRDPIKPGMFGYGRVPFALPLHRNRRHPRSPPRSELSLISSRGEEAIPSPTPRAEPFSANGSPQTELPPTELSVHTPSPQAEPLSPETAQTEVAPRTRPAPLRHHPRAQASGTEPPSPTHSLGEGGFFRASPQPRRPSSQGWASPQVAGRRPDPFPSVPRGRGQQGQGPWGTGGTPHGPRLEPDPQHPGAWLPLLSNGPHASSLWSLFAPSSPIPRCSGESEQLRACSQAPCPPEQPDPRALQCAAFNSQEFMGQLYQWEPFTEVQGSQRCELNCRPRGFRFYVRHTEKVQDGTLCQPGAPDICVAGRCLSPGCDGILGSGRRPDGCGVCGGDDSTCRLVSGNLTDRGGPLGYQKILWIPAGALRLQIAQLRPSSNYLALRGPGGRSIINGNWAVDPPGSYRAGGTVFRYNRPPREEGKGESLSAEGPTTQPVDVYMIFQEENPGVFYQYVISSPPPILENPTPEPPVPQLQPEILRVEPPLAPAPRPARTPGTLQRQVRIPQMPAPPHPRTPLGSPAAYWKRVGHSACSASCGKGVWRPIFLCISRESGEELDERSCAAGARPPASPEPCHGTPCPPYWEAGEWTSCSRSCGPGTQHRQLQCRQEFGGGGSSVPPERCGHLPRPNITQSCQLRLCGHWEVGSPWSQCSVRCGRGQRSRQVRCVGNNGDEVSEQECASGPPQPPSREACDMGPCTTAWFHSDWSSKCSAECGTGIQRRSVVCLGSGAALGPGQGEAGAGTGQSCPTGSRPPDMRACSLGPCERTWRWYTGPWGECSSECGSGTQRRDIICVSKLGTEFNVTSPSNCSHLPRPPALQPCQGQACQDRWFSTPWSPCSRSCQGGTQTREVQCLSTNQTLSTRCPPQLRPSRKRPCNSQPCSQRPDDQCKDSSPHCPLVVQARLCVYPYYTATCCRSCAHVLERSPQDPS
# UniProt Q9Y305: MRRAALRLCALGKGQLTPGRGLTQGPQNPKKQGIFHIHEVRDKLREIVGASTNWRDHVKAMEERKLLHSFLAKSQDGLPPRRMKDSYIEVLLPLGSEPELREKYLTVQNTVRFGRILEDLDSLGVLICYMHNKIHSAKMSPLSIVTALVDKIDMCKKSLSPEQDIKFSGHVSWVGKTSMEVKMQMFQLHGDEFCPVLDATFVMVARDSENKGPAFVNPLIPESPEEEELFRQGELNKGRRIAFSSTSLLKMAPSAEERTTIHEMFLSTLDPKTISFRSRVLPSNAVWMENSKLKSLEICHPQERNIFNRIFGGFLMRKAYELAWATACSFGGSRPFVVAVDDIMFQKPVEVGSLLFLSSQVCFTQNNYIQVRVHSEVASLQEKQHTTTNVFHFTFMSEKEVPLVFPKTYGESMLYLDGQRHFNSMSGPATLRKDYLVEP
# UniProt Q13444: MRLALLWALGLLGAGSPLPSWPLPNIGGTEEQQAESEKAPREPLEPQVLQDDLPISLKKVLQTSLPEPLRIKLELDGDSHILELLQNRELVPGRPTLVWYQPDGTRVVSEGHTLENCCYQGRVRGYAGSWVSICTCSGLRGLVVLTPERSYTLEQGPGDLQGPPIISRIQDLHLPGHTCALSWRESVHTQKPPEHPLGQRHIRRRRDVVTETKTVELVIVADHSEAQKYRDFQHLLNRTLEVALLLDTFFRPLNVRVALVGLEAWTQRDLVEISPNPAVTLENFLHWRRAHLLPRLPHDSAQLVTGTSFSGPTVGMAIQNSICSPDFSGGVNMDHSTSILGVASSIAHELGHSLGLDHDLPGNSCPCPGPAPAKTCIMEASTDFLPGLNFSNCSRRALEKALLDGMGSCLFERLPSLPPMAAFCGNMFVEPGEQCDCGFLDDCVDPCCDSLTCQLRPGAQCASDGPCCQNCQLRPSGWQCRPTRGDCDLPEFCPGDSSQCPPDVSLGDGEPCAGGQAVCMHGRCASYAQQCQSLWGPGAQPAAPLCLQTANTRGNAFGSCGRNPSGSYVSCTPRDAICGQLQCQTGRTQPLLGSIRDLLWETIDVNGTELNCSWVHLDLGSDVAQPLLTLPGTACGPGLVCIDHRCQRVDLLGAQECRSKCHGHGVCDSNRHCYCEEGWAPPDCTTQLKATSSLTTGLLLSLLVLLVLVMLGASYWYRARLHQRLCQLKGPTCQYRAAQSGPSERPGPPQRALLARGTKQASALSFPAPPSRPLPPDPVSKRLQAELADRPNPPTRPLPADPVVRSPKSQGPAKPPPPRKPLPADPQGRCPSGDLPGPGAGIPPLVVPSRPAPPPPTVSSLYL
# UniProt Q96GS6: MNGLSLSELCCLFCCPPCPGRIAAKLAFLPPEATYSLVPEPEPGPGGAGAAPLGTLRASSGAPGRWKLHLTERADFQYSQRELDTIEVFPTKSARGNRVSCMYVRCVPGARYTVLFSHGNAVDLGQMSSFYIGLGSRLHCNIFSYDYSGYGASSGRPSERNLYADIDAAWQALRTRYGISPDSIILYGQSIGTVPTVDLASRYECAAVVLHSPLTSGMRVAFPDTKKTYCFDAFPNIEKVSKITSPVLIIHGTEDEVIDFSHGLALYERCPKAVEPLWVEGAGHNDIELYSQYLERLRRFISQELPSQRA
# UniProt P53396: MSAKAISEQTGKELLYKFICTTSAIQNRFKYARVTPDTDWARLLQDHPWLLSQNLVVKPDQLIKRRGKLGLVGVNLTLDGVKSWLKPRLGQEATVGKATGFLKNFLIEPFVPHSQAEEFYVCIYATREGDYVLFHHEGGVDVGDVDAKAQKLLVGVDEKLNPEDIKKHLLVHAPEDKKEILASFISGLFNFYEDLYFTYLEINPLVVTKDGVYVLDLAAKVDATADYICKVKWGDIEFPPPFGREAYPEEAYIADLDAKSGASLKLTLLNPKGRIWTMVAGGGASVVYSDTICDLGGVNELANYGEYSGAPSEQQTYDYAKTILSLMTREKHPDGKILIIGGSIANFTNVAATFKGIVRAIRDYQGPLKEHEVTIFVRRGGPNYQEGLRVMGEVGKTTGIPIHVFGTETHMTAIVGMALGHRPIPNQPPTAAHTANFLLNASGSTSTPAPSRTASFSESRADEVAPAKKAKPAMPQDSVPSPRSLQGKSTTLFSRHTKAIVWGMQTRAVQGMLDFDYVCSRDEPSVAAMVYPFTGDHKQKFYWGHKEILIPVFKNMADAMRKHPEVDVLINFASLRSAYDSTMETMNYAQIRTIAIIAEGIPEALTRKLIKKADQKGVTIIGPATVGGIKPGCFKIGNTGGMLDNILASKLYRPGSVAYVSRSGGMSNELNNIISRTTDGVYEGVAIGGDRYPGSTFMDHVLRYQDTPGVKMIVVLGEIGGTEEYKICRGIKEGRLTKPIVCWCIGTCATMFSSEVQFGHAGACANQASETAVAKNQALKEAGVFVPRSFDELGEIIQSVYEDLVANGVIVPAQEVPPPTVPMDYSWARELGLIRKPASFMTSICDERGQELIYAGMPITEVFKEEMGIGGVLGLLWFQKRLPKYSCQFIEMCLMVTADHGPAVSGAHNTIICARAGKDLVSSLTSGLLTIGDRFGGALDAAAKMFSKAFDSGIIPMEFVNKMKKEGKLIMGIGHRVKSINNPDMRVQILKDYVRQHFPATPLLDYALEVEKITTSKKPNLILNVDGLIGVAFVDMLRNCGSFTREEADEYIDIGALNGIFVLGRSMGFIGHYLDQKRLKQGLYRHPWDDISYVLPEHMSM
# UniProt P42765: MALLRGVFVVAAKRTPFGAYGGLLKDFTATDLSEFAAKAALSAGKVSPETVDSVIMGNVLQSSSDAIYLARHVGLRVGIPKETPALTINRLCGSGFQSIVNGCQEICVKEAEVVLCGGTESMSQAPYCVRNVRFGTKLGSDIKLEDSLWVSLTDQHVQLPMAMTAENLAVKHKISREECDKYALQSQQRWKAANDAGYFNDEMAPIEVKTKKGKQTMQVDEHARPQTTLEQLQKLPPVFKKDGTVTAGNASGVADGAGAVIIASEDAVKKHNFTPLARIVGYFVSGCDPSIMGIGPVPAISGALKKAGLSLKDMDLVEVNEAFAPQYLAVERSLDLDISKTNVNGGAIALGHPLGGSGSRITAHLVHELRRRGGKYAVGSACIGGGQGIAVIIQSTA
# UniProt Q9NUT2: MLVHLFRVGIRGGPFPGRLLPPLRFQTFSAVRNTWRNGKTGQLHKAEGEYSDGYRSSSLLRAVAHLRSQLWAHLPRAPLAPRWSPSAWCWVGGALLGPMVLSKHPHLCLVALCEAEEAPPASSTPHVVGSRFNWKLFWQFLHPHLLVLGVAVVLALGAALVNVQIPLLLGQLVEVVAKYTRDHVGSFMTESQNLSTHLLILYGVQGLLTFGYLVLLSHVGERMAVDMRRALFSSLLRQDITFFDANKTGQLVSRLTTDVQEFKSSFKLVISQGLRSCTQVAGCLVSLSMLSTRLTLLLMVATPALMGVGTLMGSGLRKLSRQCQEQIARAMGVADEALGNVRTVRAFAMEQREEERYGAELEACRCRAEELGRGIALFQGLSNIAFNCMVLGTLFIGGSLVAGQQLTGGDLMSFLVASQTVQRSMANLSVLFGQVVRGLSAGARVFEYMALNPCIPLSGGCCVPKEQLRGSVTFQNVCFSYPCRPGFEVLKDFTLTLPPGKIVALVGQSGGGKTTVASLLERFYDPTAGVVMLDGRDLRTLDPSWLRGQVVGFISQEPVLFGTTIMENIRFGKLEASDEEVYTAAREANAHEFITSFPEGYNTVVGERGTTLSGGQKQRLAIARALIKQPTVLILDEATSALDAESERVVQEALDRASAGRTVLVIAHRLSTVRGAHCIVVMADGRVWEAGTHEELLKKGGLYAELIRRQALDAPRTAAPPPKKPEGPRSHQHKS
# This is one part of the list.
# Legend:
# Assay in all cases: log2 fold change, soluble protein after heating vs DMSO (PISA); higher = thermal stabilisation; K562 cells, 10 uM, 30 min; active = over 0.2 and 3.5 SD of the protein, either way, in both replicates (recomputed)
# [1] = compound: CS(=O)(=O)c1ccc(-c2cnc(N)c(C(=O)Nc3ccccc3)n2)cc1
# How it was run: (§1)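 Soluble protein was quantified by TMTpro 16plex LC-MS/MS after channel sums were equalised. It was obtained as the supernatant after 21,000xg for 90 min from pooled aliquots of K562 cells (2×10^6 cells/mL, 10 μM compound, 30 min) heated for 3 min across 48°C-58°C and extracted in PBS with 0.5% NP-40 at 4°C. Thermal stability values are relative to control samples and come from duplicates. They are given as log2 fold changes.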
# [2] = compound: C[C@@H](Oc1cc(-c2cnn(C3CCNCC3)c2)cnc1N)c1c(Cl)ccc(F)c1Cl [crizotinib]
# How it was run: as §1
# [3] = compound: C[C@@H]1COCCN1C2=NC(=NC(=C2)C3(CC3)S(=O)(=O)C)C4=C5C=CNC5=CC=C4
# How it was run: as §1
# [4] = compound: C[C@H](C1=CC=C(C=C1)C(=O)NC2=C3C=CNC3=NC=C2)N
# How it was run: as §1
# [5] = compound: C[C@H](Nc1ncnc2nc[nH]c12)c1cc2cccc(Cl)c2c(=O)n1-c1ccccc1 [duvelisib]
# How it was run: as §1
# [6] = compound: Cc1cc(Nc2cc(CN3CCOCC3)c3nc(C)c(Cc4ccc(Cl)cc4F)n3n2)n[nH]1 [gandotinib]
# How it was run: as §1
# [7] = compound: Cc1cc(Nc2cc(N3CCN(C)CC3)nc(Sc3ccc(NC(=O)C4CC4)cc3)n2)n[nH]1 [tozasertib]
# How it was run: as §1
# [8] = compound: Cc1cc(SCc2sc(-c3ccc(C(F)(F)F)cc3)nc2C)ccc1OCC(=O)O
# How it was run: as §1
# [9] = compound: Cc1ccc(-n2nc(C(C)(C)C)cc2NC(=O)Nc2ccc(OCCN3CCOCC3)c3ccccc23)cc1 [doramapimod]
# How it was run: as §1
# [10] = compound: Cc1ccc(C(=O)N(CCCN)[C@@H](c2nc3cc(Cl)ccc3c(=O)n2Cc2ccccc2)C(C)C)cc1 [ispinesib]
# How it was run: as §1
# [11] = compound: Cc1ccc(NC(=O)c2ccc(CN3CC[C@H](N(C)C)C3)c(C(F)(F)F)c2)cc1Nc1nccc(-c2cncnc2)n1 [bafetinib]
# How it was run: as §1
# [12] = compound: Cc1cccc(CC(=O)N2CCc3c2ccc(-c2cn(C)c4ncnc(N)c24)c3F)n1
# How it was run: as §1
# [13] = compound: Cc1cn(-c2cc(NC(=O)c3ccc(C)c(Nc4nccc(-c5cccnc5)n4)c3)cc(C(F)(F)F)c2)cn1 [nilotinib]
# How it was run: as §1
# [14] = compound: Cc1nc(Nc2n[nH]c3c2CN(C(=O)N[C@H](CN(C)C)c2ccccc2)C3(C)C)c2sccc2n1
# How it was run: as §1
# [15] = compound: Cc1nc(Nc2ncc(C(=O)Nc3c(C)cccc3Cl)s2)cc(N2CCN(CCO)CC2)n1 [dasatinib]
# How it was run: as §1
# [16] = compound: Cc1ncc(-c2ccnc(Nc3ccc(S(C)(=O)=O)cc3)n2)n1C(C)C
# How it was run: as §1
# [17] = compound: Cn1cc(-c2ccc3c(c2)CCN3C(=O)Cc2cccc(C(F)(F)F)c2)c2c(N)ncnc21
# How it was run: as §1
# [18] = compound: Cn1cc(-c2ccc3nnc(C(F)(F)c4ccc5ncccc5c4)n3n2)cn1
# How it was run: as §1
# [19] = compound: Cn1cncc1[C@@](N)(c1ccc(Cl)cc1)c1ccc2c(c1)c(-c1cccc(Cl)c1)cc(=O)n2C [tipifarnib]
# How it was run: as §1
# [20] = compound: FC(F)(F)c1ccc(/C=C/c2nc(COc3ccc(CCCCn4ccnn4)cc3)co2)cc1 [mubritinib]
# How it was run: as §1
Target,log2 fold change [1],log2 fold change [2],log2 fold change [3],log2 fold change [4],log2 fold change [5],log2 fold change [6],log2 fold change [7],log2 fold change [8],log2 fold change [9],log2 fold change [10],log2 fold change [11],log2 fold change [12],log2 fold change [13],log2 fold change [14],log2 fold change [15],log2 fold change [16],log2 fold change [17],log2 fold change [18],log2 fold change [19],log2 fold change [20]
AAMDC (UniProt Q9H7C9),inactive: -0.06,inactive: 0.085,inactive: 0.067,inactive: -0.077,inactive: 0.118,inactive: 0.068,inactive: 0.048,inactive: -0.022,inactive: 0.053,inactive: 0.077,inactive: -0.008,inactive: -0.003,inactive: 0.046,inactive: 0.009,inactive: 0.056,inactive: -0.018,inactive: 0.094,inactive: 0.122,inactive: -0.088,inactive: 0.073
ACBD3 (UniProt Q9H3P7),inactive: 0.024,inactive: 0.089,inactive: 0.002,inactive: -0.077,inactive: 0.005,inactive: 0.044,inactive: -0.009,inactive: 0.029,inactive: -0.003,inactive: 0.096,inactive: 0.05,inactive: -0.046,inactive: 0.019,inactive: -0.011,inactive: -0.053,inactive: 0.032,inactive: 0.062,inactive: -0.004,inactive: -0.002,inactive: 0.06
"ACAT1, A0A5F9ZHJ0",inactive: -0.022,inactive: -0.034,inactive: 0.042,inactive: 0.024,inactive: 0.013,inactive: -0.135,inactive: -0.212,inactive: -0.101,inactive: -0.017,–,inactive: 0.013,inactive: -0.069,inactive: -0.098,inactive: -0.043,inactive: 0.01,inactive: -0.145,inactive: -0.105,–,inactive: -0.219,inactive: 0.095
"ACTB, A0A2R8Y793",inactive: -0.035,inactive: 0.031,inactive: 0.003,inactive: -0.051,inactive: 0.054,inactive: 0.018,inactive: 0.026,inactive: -0.017,inactive: -0.019,inactive: 0.077,inactive: -0.052,inactive: 0.004,inactive: -0.003,inactive: 0.001,inactive: 0.048,inactive: 0.009,inactive: 0.003,inactive: -0.034,inactive: -0.015,inactive: -0.005
ACTN4 (UniProt K7EJH8),inactive: 0.016,inactive: 0.003,inactive: -0.017,inactive: -0.041,inactive: 0.093,inactive: -0.018,inactive: -0.06,inactive: -0.055,inactive: 0.008,inactive: 0.074,inactive: -0.036,inactive: -0.029,–,–,inactive: 0.045,–,inactive: -0.004,inactive: -0.027,inactive: 0.03,inactive: -0.041
ABHD14B (UniProt Q96IU4),inactive: -0.013,inactive: -0.005,inactive: 0.167,inactive: -0.135,inactive: 0.091,inactive: -0.095,inactive: 0.046,inactive: 0.028,inactive: 0,inactive: 0.148,inactive: -0.029,inactive: 0.039,inactive: 0.004,inactive: -0.016,inactive: -0.027,inactive: -0.028,inactive: 0.061,inactive: 0.024,inactive: -0.079,inactive: 0.042
ACAD9 (UniProt Q9H845),inactive: 0.01,inactive: 0.035,inactive: 0.021,inactive: -0.061,–,inactive: -0.03,–,inactive: -0.052,inactive: -0.002,inactive: 0.059,inactive: -0.061,inactive: -0.022,inactive: 0,inactive: 0.021,inactive: 0.125,inactive: -0.023,inactive: 0.047,inactive: 0.014,inactive: 0.055,inactive: 0.067
ADA (UniProt P00813),inactive: 0.013,inactive: 0.006,inactive: 0.066,inactive: -0.036,inactive: 0.075,inactive: -0.052,inactive: -0.056,inactive: -0.094,inactive: 0.014,inactive: -0.005,inactive: -0.055,inactive: -0.123,inactive: 0.047,inactive: -0.016,inactive: -0.028,inactive: 0.012,inactive: 0.059,inactive: 0.092,inactive: 0.051,inactive: 0.077
ADAMTSL4 isoform 3 (UniProt Q6UY14),inactive: 0.045,inactive: 0.102,inactive: -0.144,inactive: 0.002,inactive: -0.081,inactive: -0.244,inactive: 0.234,inactive: 0.036,inactive: -0.035,inactive: 0.048,inactive: 0.106,inactive: 0.148,inactive: 0.115,inactive: -0.001,inactive: 0.059,inactive: 0,inactive: -0.058,inactive: -0.154,inactive: 0.121,inactive: -0.081
ACOT9 isoform 4 (UniProt Q9Y305),inactive: -0.008,inactive: 0.005,inactive: -0.101,inactive: 0.121,inactive: -0.02,inactive: 0.104,inactive: -0.096,inactive: 0.064,inactive: 0.098,inactive: 0.071,inactive: 0.169,inactive: 0.111,inactive: 0.071,inactive: 0.044,inactive: 0.036,inactive: -0.034,inactive: 0.04,inactive: -0.049,inactive: 0.009,inactive: 0.081
ADAM15 (UniProt Q13444),inactive: 0,inactive: 0.097,inactive: 0.015,inactive: -0.047,–,inactive: -0.047,–,inactive: -0.047,inactive: 0.033,inactive: -0.119,inactive: 0.067,inactive: 0.003,inactive: -0.11,inactive: -0.043,inactive: -0.009,inactive: 0.079,active: -0.355,inactive: 0.018,inactive: -0.053,–
ABHD17A isoform 2 (UniProt Q96GS6),inactive: -0.027,inactive: -0.135,inactive: -0.03,inactive: -0.015,–,inactive: -0.283,–,inactive: 0.016,inactive: 0.004,inactive: -0.129,inactive: -0.051,inactive: 0.044,inactive: -0.054,inactive: 0.047,inactive: -0.023,inactive: 0.018,inactive: 0.028,inactive: 0.068,inactive: -0.042,inactive: 0.061
ACLY (UniProt P53396),inactive: 0.005,inactive: 0.021,inactive: 0.052,inactive: -0.063,inactive: 0.035,inactive: 0.009,inactive: 0.017,inactive: -0.001,inactive: 0,inactive: 0.033,inactive: -0.052,inactive: -0.038,inactive: -0.068,inactive: 0.002,inactive: -0.037,inactive: 0.013,inactive: -0.003,inactive: 0.023,inactive: 0.016,inactive: -0.177
ABI1 (UniProt Q8IZP0),inactive: 0.009,inactive: -0.023,inactive: 0.031,inactive: -0.139,inactive: 0.073,inactive: -0.014,inactive: -0.004,inactive: 0.102,inactive: -0.034,inactive: -0.039,inactive: -0.099,inactive: 0.036,inactive: -0.055,inactive: -0.116,inactive: -0.12,inactive: -0.053,inactive: 0.062,inactive: 0.005,inactive: 0.047,inactive: 0.016
ACAA2 (UniProt P42765),inactive: 0.009,inactive: 0.076,inactive: 0.004,inactive: -0.06,inactive: 0,inactive: 0.052,inactive: -0.015,inactive: -0.041,inactive: 0.011,inactive: 0.025,inactive: -0.037,inactive: -0.063,inactive: 0,inactive: 0.007,inactive: 0.048,inactive: -0.031,inactive: 0.037,inactive: 0.04,inactive: 0.014,inactive: 0.048
ABCB8 (UniProt Q9NUT2),inactive: 0.011,inactive: -0.191,inactive: 0.046,inactive: -0.014,inactive: 0.042,inactive: -0.072,inactive: -0.05,inactive: 0.018,inactive: -0.006,inactive: -0.051,inactive: 0.037,inactive: 0,inactive: -0.017,inactive: -0.007,inactive: -0.06,inactive: -0.004,inactive: 0.014,inactive: 0.05,inactive: -0.001,inactive: 0.035

# Limited to log2 fold change [6] and log2 fold change [14] (2 entries from above):
Target,log2 fold change [6],log2 fold change [14]
ADAM15 (UniProt Q13444),inactive: -0.047,inactive: -0.043
ABHD17A isoform 2 (UniProt Q96GS6),inactive: -0.283,inactive: 0.047
